These are yes or no findings as the source states them, for the method shown. In cells and extracts the contact can be indirect. Some binding calls cover weakened binding; strength is not graded here.
What was measured:
GST‐HA‐Keap1 = GST‐HA‐Keap1 (UniProt Q14145); assay: pull-down; GST-HA fusion and FLAG-tagged partner co-transfected in HEK293 cells, glutathione beads, Western blot
[1] = target: serine/threonine‐specific protein phosphatase (PP1A) (human (in Huh7 cells; endogenous or transfected not stated)) (UniProt P62136); assay: co-IP; cell lysates with antibodies overnight at 4°C, protein A/G magnetic beads 6 h at 4°C, washed with PBST, Western blot; Keap1-Nrf2 co-IP with or without overexpressed PP1A or PP1A phosphatase-site mutant
GST‐HA‐PP1A = GST‐HA‐PP1A (UniProt P62136); assay: pull-down; GST-HA fusion and FLAG-tagged partner co-transfected in HEK293 cells, glutathione beads, Western blot

By UniProt entry, the sequences of proteins in these tests, tags left out.
UniProt Q14145: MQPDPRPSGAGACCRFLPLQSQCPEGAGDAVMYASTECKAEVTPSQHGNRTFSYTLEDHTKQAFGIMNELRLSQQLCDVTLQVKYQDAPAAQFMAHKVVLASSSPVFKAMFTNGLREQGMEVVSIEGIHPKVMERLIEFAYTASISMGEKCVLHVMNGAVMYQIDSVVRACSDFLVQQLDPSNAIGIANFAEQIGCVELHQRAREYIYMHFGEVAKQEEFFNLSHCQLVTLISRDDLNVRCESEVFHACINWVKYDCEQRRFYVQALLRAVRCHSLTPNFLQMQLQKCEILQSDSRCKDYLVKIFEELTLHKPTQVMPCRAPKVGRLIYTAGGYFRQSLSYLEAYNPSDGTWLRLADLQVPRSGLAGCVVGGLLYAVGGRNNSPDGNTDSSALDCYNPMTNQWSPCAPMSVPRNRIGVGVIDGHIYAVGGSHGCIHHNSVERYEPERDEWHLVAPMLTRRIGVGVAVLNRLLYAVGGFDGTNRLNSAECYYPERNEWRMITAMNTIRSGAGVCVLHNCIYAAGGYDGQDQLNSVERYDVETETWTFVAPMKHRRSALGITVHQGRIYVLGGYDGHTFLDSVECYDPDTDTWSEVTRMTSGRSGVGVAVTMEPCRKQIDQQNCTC
UniProt P62136: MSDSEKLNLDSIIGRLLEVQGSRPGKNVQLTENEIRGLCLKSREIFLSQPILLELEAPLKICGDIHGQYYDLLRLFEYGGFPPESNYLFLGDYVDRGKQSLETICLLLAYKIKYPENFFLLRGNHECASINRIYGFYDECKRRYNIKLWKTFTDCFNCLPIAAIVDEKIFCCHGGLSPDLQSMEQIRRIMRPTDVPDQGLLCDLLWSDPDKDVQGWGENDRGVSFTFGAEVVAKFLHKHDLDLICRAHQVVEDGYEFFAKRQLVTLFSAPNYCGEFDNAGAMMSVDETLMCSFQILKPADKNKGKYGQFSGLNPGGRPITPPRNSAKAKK

FLAG‐PP1A (from UniProt P62136 1-330) (enzyme)
binding (GST‐HA‐Keap1): binds

Kelch‐like ECH‐associated protein (Keap1) (from UniProt Q14145 1-624)
binding [1]: binds

FLAG‐Keap1 (from UniProt Q14145 1-624)
binding (GST‐HA‐PP1A): binds

— PMC12279197
